For the experiment, the target named is T1, tail tube protein gp40 (phage Mu) (UniProt P79679).
T1 sequence: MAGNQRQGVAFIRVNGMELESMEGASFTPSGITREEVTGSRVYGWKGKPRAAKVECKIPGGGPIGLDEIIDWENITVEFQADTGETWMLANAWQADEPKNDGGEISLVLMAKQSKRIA
The experiment can be described thus: condition: only contracted state (virions treated with 5 M urea); cryo-EM structure; purified phage Mu virions in the contracted state: diluted 10-fold with 5 M urea, 2 h at 37°C, urea removed by ultrafiltration; baseplate, DNA and TMP lost; 3.6 Å (portal-adaptor), 3.8 Å (terminator-tail); both purified.

No constants are given. Whether binding was seen depends on the method and setting.

Data on one molecule can be found in article PMC11915804, “In situ structures of the contractile nanomachine myophage Mu in both its extended and contracted states” (Journal of Virology, 2025).

B1: tail sheath protein gp39 (natural protein, phage Mu, UniProt P79678 1-495, looked up)
chain: MSDISFNAIPSDVRVPLTYIEFDNSNAVSGTPAPRQRVLMFGQSGSKASAAPNVPVRIRSGSQASAAFGQGSMLALMADAFLNANRVAELWCIPQGNGTGNAAVGEISLSGTAGENGSLVTYIAGQRLAVSVAAGATGAALADLLVARIKGQPDLPVTAEVRADSGDDDTHADVVLSAKFTGALSAVDVRWNYYAGETTPYGIITAFKAASGKNGNPDISASIAGMGDLQYKYIVMPYTDEPNLNLLRTELQERWGPVNQADGFAVTVLSGTYGDISTFGVSRNDHLISCMGIAGAPEPSYLYAATLCAVASQALSIDPARPLQTLTLPGRMPPAVGDRFTWSERNALLFDGISTFNVNDGGEMQIERMITMYRTNKYGDSDPSYLNVNTIATLSYLRYSLRTRITQKFPNYKLASDGTRFATGQAVVTPSVIKTELLALFEEWENAGLVEDFDTFKEELYVARNKDDKDRLDVLCGPNLINQFRIFAAQVQFIL
notes: tail sheath protein gp39 of myophage Mu, as it stands in the virion; Hexameric rings, 30 of them stacked in the tail; Model deposited here; source: phage Mu virions grown on E. coli (ATCC 23724), purified (PEG 8000/NaCl precipitation, CsCl gradient)
Consider B1, for which the binding entry is on record as “no binding”.
